Measured values taken from PMC9888393.

The chains behind the UniProt entries cited, without tags or fusion partners. Residues count along the entry.
UniProt Q9NZQ7, residues 19-290: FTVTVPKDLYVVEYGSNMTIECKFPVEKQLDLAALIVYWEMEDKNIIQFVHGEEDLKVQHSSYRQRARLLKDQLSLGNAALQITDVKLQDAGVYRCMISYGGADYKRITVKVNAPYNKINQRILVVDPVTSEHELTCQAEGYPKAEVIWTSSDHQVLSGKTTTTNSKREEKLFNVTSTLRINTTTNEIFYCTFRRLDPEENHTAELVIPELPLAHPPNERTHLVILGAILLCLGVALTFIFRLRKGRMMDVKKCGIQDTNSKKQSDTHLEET
UniProt P61006: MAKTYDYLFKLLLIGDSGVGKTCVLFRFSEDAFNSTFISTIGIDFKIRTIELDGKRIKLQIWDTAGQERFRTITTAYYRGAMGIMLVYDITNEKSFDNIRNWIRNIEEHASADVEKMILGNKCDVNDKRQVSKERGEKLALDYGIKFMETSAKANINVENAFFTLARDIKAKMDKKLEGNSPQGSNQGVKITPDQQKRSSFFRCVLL
UniProt P61026: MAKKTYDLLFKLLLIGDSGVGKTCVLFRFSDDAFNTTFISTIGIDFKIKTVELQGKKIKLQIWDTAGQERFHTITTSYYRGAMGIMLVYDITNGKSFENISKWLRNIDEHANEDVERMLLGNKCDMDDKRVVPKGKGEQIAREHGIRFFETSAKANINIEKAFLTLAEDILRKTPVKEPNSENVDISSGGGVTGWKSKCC

Biological target: FLAG–PD-L1 (RC213071) in the pCMV6-Entry vector (human) (UniProt Q9NZQ7)
Test: affinity purification with mass spectrometry; PD-L1–interacting proteins in 293T cells overexpressing MIB2

Row | binding | Substance
1 | binds | RAB8A (from UniProt P61006 1-207)
2 | binds | RAB10 (from UniProt P61026 1-200)

These are yes or no findings as the source states them, for the method shown. In cells and extracts the contact can be indirect. Here binding means that the protein was enriched with, or labelled near, the bait; the list need not be complete.
